Reference: PubChem BioAssay AID504784 (Drosophila RNAi Screening Center, 2011)
Test: 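Genome-wide knock-down for genes giving too much or too little stored lipid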 (primary screen). Cell system: Drosophila Kc167 embryonic cells. Reagent: long dsRNA against Drosophila genes, about 250 ng dsRNA per well. Time to read-out: 4 days. Treatment: cells fed 400 µM oleic acid bound to BSA. Measured: 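Microscope images give a droplet-to-nucleus area ratio, taken as log and converted to a screen-wide B-score; higher values mean greater lipid storage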. Scale: droplet/nuclear area B-score: higher = more stored lipid (overstorage).
The deposit covers about 17,000 reagents; this is an unselected part of those that have a named target and a result. 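Each column is one replicate's B-score; the combined score over replicates was not deposited, so single values may mislead.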 Reagents against one gene are numbered here. A plus sign joins genes that one reagent is predicted to hit. Not all columns of the deposit are shown.

droplet/nuclear area B-score, replicate 1, by gene and reagent
CG30379: #1 -1.67
Cpr92A: #1 -1.51
Pms2: #1 0.675
mRpS11: #1 1.46
Atf-2: #1 -3.03; #2 0.372
AANATL6: #1 0.413
CG30467: #1 -1.3
CG7011: #1 2.38
LysE: #1 -1.36
trsn: #1 -0.118
CG34112: #1 -0.815
RpL23: #1 5.58
mod: #1 -0.235
CG7130: #1 1.04
CG1789: #1 -0.381
Delta: #1 0.132
CG9945: #1 -1.08
CG4815: #1 -3
Prosbeta4: #1 7.25
SCCRO: #1 3.92
yip3: #1 -0.0823
ppk31: #1 -0.163
Pisd: #1 -1.76
Alp4: #1 -0.487
CG7542: #1 0.22
CG30491: #1 -0.0389
CG10366: #1 -0.0849
Tsp29Fa: #1 -0.655
Rpt5: #1 0.737
t-cup: #1 -0.397
CG1387: #1 -0.574
CG34133: #1 -0.0605; #2 -1.1
BEAF-32: #1 1.18
Hmgs: #1 0.0307
tRNA:Leu-CAA-2-3: #1 1.19
CG14054: #1 -0.417
Prosalpha5: #1 -2.17
Mtr4: #1 -0.562
toe: #1 -0.0382; #2 2.06
CG4408: #1 -3.89
CkIIalpha-i1: #1 0.612
CG33259: #1 -0.032
CG30098: #1 0.0713
CG7551: #1 -0.133
lcs: #1 -0.143
CG7841: #1 2.13
bib: #1 1.29
CG13067: #1 1.61
CG2104: #1 0.778
tko: #1 0.895
CG10163: #1 0.598
CG7011 + Prp31: #1 0.163
sky: #1 1.81; #2 1.06; #3 -0.332

An excerpt of the results above, as a working copy:
droplet/nuclear area B-score, replicate 1, by gene and reagent
Alp4: #1 -0.487
CG7542: #1 0.22
CG30491: #1 -0.0389
